doi:10.1101/2025.11.17.685403

Biological target: T1, RFS1 (C. elegans) made in E. coli with a His-MBP tag, tag cleaved (C. elegans) (UniProt P34348)
T1 sequence: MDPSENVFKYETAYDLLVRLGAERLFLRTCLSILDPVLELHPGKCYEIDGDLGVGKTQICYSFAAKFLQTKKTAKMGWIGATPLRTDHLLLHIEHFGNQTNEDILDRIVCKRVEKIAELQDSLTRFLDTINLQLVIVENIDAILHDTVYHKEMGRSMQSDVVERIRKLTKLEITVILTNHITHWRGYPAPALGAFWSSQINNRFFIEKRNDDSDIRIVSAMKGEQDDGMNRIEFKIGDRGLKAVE
Experiment: SEC

For “RIP1 (C. elegans) made in E. coli with a His-MOCR tag, tag cleaved”, the binding was “binds”.

No constants are given. Whether binding was seen depends on the method and setting. A result given as binding can be weak or reduced; the word gives no strength. Sequences can lack the tags named with a protein.
